Source: US9066923B2, “Methods for Alzheimer's disease treatment and cognitive enhancement” (Blanchette Rockefeller Neurosciences Institute, priority 2002, dated 2015)

Legend:
sAPPα secretion = sAPPα secretion in cultured human skin fibroblasts (immunoblot, antibody 6E10); type: cell-based; conditions: staurosporin together with bryostatin
Protocol: Cultured skin fibroblasts were obtained from the Coriell Cell Repositories and grown using the general guidelines established for their culture with slight modifications (Cristofalo & Carptentier, 1988; Hirashima et al., 1996). The culture medium in which cells were grown was Dulbecco's modified Eagle's medium (GIBCO) supplemented with 10% calf serum (Biofluids, Inc.). Fibroblasts from control cell lines (AC), cases AG07141 and AG06241, and a familial AD (FAD) case (AG06848) were utilized.
Cells grown to confluence in 6 cm Petri dishes for 5-7 days. On the day of the experiment, medium was replaced with DMEM without serum and left undisturbed for 2 h. Upon completion of the 2 hour serum deprivation, treatment was achieved by direct application to the medium of Bryo, BL and DMSO at the appropriate concentrations. DMSO was less than 1% in all cases. In most cases, medium was collected and processed after 3 hours of treatment for sAPP secretion. […]
The concentration of secreted APP was measured using conventional immunoblotting techniques, with minor modifications the protocol. […] The signal was then detected using enhanced chemiluminescence followed by exposure of Hyperfilm ECL (Amersham). The band intensities were quantitative by densitometry using a BioRad GS-800 calibrated scanning densitometer and Multianalyst software (BioRad).

sAPP secretion = conditions: control and AD fibroblasts; cited from earlier work

CN[C@@H]1C[C@H]2O[C@@](C)([C@@H]1OC)n1c3ccccc3c3c4c(c5c6ccccc6n2c5c31)C(=O)NC4 [staurosporine]
effect of PKC inhibitor on bryostatin-induced sAPP secretion (sAPPα secretion): completely prevents the effect of bryostatin on sAPP secretion
effect of PKC inhibitor on the benzolactam effect (sAPP secretion): eliminated the effects of benzolactam
